Assay results from the supplement of paper PMC10503962.
This is one part of the list. Most values come without repeats; read them as rough.

Test system: Trichuris muris adult worms
Assay: median motility score (Paragon pixel variance) of adult worms (arbitrary units); higher = more motile worms
Details: 24 h

## CCOC(=O)c1ccc(N)cc1 [benzocaine]
20 µM
  median motility score: 3510
50 µM
  median motility score: 2560
100 µM
  median motility score: 1540

## NS(=O)(=O)c1cc(C2(O)NC(=O)c3ccccc32)ccc1Cl (stereo not given) [chlorthalidone]
20 µM
  median motility score: 858
50 µM
  median motility score: 4320
100 µM
  median motility score: 4000

## CN(C)CCOC(C)(c1ccccc1)c1ccccn1 (stereo not given) [doxylamine]
20 µM
  median motility score: 4480
50 µM
  median motility score: 4420
100 µM
  median motility score: 3820

## COc1cc(NC(C)CCCN)c2ncccc2c1 (stereo not given) [primaquine]
20 µM
  median motility score: 3320
50 µM
  median motility score: 2100
100 µM
  median motility score: 4320

## CCOC(=O)C1=C(C)NC(C)=C(C(=O)OC)C1c1cccc(Cl)c1Cl (stereo not given) [felodipine]
20 µM
  median motility score: 5120
50 µM
  median motility score: 29
100 µM
  median motility score: 0

## CN1CCC[C@@H]1CCO[C@](C)(c1ccccc1)c1ccc(Cl)cc1.Cl [clemastine hydrochloride]
20 µM
  median motility score: 2580
50 µM
  median motility score: 644
100 µM
  median motility score: 0

## C=C[C@H]1CN2CC[C@H]1C[C@H]2[C@H](O)c1ccnc2ccc(OC)cc12 [quinine]
20 µM
  median motility score: 105
50 µM
  median motility score: 5270
100 µM
  median motility score: 2640

## CN(C)CCC[C@@]1(c2ccc(F)cc2)OCc2cc(C#N)ccc21 [escitalopram]
20 µM
  median motility score: 3090
50 µM
  median motility score: 1230
100 µM
  median motility score: 2490

## CN(C)CC/C=C1/c2ccccc2COc2ccc(CC(=O)O)cc21 [olopatadine]
20 µM
  median motility score: 2840
50 µM
  median motility score: 1290
100 µM
  median motility score: 2220

## CC(C)(O)c1ccccc1CC[C@@H](SCC1(CC(=O)[O-])CC1)c1cccc(/C=C/c2ccc3ccc(Cl)cc3n2)c1.[Na+] [montelukast sodium]
20 µM
  median motility score: 617
50 µM
  median motility score: 3720
100 µM
  median motility score: 1470

## CC(C)Nc1cccnc1N1CCN(C(=O)c2cc3cc(NS(C)(=O)=O)ccc3[nH]2)CC1.CS(=O)(=O)O [delavirdine mesylate]
20 µM
  median motility score: 1670
50 µM
  median motility score: 2580
100 µM
  median motility score: 2660

## Cl.OC(CCN1CCCCC1)(c1ccccc1)C1CCCCC1 (stereo not given) [trihexyphenidyl hydrochloride]
20 µM
  median motility score: 2030
50 µM
  median motility score: 4410
100 µM
  median motility score: 2970

## CCCCCCCCCCCCOS(=O)(=O)[O-].[Na+] [sodium lauryl sulfate]
20 µM
  median motility score: 2890
50 µM
  median motility score: 4860
100 µM
  median motility score: 2290

## Cc1nccn1CC1CCc2c(c3ccccc3n2C)C1=O (stereo not given) [ondansetron]
20 µM
  median motility score: 126
50 µM
  median motility score: 4900
100 µM
  median motility score: 2660

## CN(C)CCCN1c2ccccc2CCc2ccc(Cl)cc21.Cl [clomipramine hydrochloride]
20 µM
  median motility score: 725
50 µM
  median motility score: 0
100 µM
  median motility score: 0

## CC1Cc2ccccc2N1NC(=O)c1ccc(Cl)c(S(N)(=O)=O)c1 (stereo not given) [indapamide]
20 µM
  median motility score: 3860
50 µM
  median motility score: 2660
100 µM
  median motility score: 2280

## NS(=O)(=O)c1cc2c(cc1C(F)(F)F)NC(Cc1ccccc1)NS2(=O)=O (stereo not given) [bendroflumethiazide]
20 µM
  median motility score: 352
50 µM
  median motility score: 4140
100 µM
  median motility score: 3940

## Clc1ccc(COC(Cn2ccnc2)c2ccc(Cl)cc2Cl)cc1 (stereo not given) [econazole]
20 µM
  median motility score: 0
50 µM
  median motility score: 0
100 µM
  median motility score: 0

## CC(CN1c2ccccc2Sc2ccccc21)N(C)C (stereo not given) [promethazine]
20 µM
  median motility score: 1500
50 µM
  median motility score: 2970
100 µM
  median motility score: 1460

## CCCCN1CCCCC1C(=O)Nc1c(C)cccc1C (stereo not given) [bupivacaine]
20 µM
  median motility score: 1890
50 µM
  median motility score: 3650
100 µM
  median motility score: 3390

## NS(=O)(=O)c1cc2c(cc1Cl)N=CNS2(=O)=O [chlorothiazide]
20 µM
  median motility score: 175
50 µM
  median motility score: 3200
100 µM
  median motility score: 2780

## CNCCCC1c2ccccc2C=Cc2ccccc21.Cl [protriptyline hydrochloride]
20 µM
  median motility score: 2740
50 µM
  median motility score: 2100
100 µM
  median motility score: 1060

## O=C(O[C@H]1C[C@H]2CC3C[C@@H](C1)N2CC3=O)c1c[nH]c2ccccc12 [dolasetron]
20 µM
  median motility score: 3010
50 µM
  median motility score: 3130
100 µM
  median motility score: 3480

## COc1cc(C(=O)NCc2ccc(OCCN(C)C)cc2)cc(OC)c1OC [trimethobenzamide]
20 µM
  median motility score: 5080
50 µM
  median motility score: 2480
100 µM
  median motility score: 4340

## CN(C)CCC(c1ccccc1)c1ccccn1 (stereo not given) [pheniramine]
20 µM
  median motility score: 561
50 µM
  median motility score: 2340
100 µM
  median motility score: 3110

## CN(C)CCCN1c2ccccc2CCc2ccccc21 [imipramine]
20 µM
  median motility score: 1500
50 µM
  median motility score: 2460
100 µM
  median motility score: 2160

## CN(C)CCOC(c1ccc(Cl)cc1)c1ccccn1 (stereo not given) [carbinoxamine]
20 µM
  median motility score: 703
50 µM
  median motility score: 2760
100 µM
  median motility score: 508

## OC(CNCC(O)C1CCc2cc(F)ccc2O1)C1CCc2cc(F)ccc2O1 (stereo not given) [nebivolol]
20 µM
  median motility score: 3350
50 µM
  median motility score: 2170
100 µM
  median motility score: 3940

## CN1CCC(=C2c3ccccc3C=Cc3ccccc32)CC1 [cyproheptadine]
20 µM
  median motility score: 3340
50 µM
  median motility score: 0
100 µM
  median motility score: 0

## CC(C)NCC(O)COc1ccc(CC(N)=O)cc1 (stereo not given) [atenolol]
20 µM
  median motility score: 1990
50 µM
  median motility score: 3760
100 µM
  median motility score: 3780
